Measurements as given in US20160068860A1, “TRANSGENIC PLANTS” (CONSEJO SUPERIOR DE INVESTIGACIONES CIENTIFICAS (CSIC), priority 2013, published 2016).
Changes are numbered by the printed parent chain. Numbers in names are those of the source. No constants are given. Whether binding was seen depends on the method and setting. Some binding calls cover weakened binding; strength is not graded here.

Sequences of proteins named here, by UniProt entry; tags and fusion partners are left off. Residues count along the entry.
UniProt Q9CAJ0, residues 23-511: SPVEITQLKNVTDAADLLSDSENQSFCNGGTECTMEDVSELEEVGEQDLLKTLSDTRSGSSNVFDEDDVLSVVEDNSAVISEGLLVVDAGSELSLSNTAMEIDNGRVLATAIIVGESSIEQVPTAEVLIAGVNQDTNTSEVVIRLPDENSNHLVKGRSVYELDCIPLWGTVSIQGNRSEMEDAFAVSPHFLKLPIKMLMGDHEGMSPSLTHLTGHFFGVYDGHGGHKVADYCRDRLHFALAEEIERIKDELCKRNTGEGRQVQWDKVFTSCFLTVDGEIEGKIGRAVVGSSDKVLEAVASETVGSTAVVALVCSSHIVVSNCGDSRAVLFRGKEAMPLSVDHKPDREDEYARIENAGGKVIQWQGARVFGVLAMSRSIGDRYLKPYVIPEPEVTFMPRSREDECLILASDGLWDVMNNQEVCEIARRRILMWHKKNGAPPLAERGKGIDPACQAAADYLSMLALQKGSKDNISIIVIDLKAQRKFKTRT

B1: PYL4A194T (AtPYL A194T) (receptor)
chain: MLAVHRPSSAVSDGDSVQIPMMIASFQKRFPSLSRDSTAARFHTHEVGPNQCCSAVIQEISAPISTVWSVVRRFDNPQAYKHFLKSCSVIGGDGDNVGSLRQVHVVSGLPAASSTERLDILDDERHVISFSVVGGDHRLSNYRSVTTLHPSPISGTVVVESYVVDVPPGNTKEETCDFVDVIVRCNLQSLAKITENTAAESKKKMSL
B2: PYL4V97A (AtPYL V97A) (receptor)
chain: B1 chain with V97A, T194A
B3: PYL4H82R V97A (AtPYL H82 and V97A) (receptor)
chain: B1 chain with H82R, V97A, T194A
B4: PYL4C176R F130Y (AtPYL F130Y and C176R) (receptor)
chain: B1 chain with F130Y, C176R, T194A
B5: AtPYL4 wild type polypeptide (At2g38310) (receptor)
chain: B1 chain with T194A

Target: HAB1 (clade A protein phosphatase 2C) (Arabidopsis thaliana) (UniProt Q9CAJ0)
Assay: yeast two-hybrid growth assay with HAB1 prey (PYL4-HAB1 interaction is ABA-dependent in yeast)

| Binder | binding |
| --- | --- |
| B1 | binds |
| B2 | binds |
| B3 | binds |
| B4 | binds |

Target: HAB1 (clade A protein phosphatase 2C) (Arabidopsis thaliana) (UniProt Q9CAJ0)
Assay: BiFC in N. benthamiana epidermal cells

| Binder | binding |
| --- | --- |
| B5 | binds |
| B1 | binds |
